Measured values from the supplement of paper PMC8728848.
The other results are listed elsewhere or left out.

How the values were obtained:
Test in all cases: glycan array binding signal (z-score within array); higher = stronger binding
Conditions in all cases: glycan notation: IUPAC condensed, linker removed
[1] = target: Neu5Ac(a2-3)Gal(b1-3)]Neu5Ac(a2-3)Gal(b1-4)]GlcNAc
In short: (§1)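 Columns mapping to the same glycan were averaged after glycan names were converted to IUPAC-condensed notation. The data come from 3228 arrays in the Consortium for Functional Glycomics database, limited to those with an available protein sequence. Binding is reported as a within-array Z-score averaged across arrays of one protein sequence and across linkers.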

[2] = target: Neu5Ac(a2-3)Gal(b1-4)Glc
In short: as §1

[3] = target: Neu5Ac(a2-3)Gal(b1-4)GlcNAc
In short: as §1

[4] = target: Neu5Ac(a2-3)Gal(b1-4)GlcNAc(b1-2)Man
In short: as §1

[5] = target: Neu5Ac(a2-3)Gal(b1-4)GlcNAc(b1-2)Man(a1-3)[GlcNAc(b1-4)][Neu5Ac(a2-3)Gal(b1-4)GlcNAc(b1-2)Man(a1-6)]Man(b1-4)GlcNAc(b1-4)GlcNAc
In short: as §1

[6] = target: Neu5Ac(a2-3)Gal(b1-4)GlcNAc(b1-2)Man(a1-3)[Neu5Ac(a2-3)Gal(b1-4)GlcNAc(b1-2)Man(a1-6)]Man(b1-4)GlcNAc(b1-4)GlcNAc
In short: as §1

[7] = target: Neu5Ac(a2-3)Gal(b1-4)GlcNAc(b1-2)Man(a1-3)[Neu5Ac(a2-3)Gal(b1-4)GlcNAc(b1-2)Man(a1-6)]Man(b1-4)GlcNAc(b1-4)[Fuc(a1-6)]GlcNAc
In short: as §1

[8] = target: Neu5Ac(a2-3)Gal(b1-4)GlcNAc(b1-2)Man(a1-3)[Neu5Ac(a2-6)Gal(b1-4)GlcNAc(b1-2)Man(a1-6)]Man(b1-4)GlcNAc(b1-4)GlcNAc
In short: as §1

[9] = target: Neu5Ac(a2-3)Gal(b1-4)GlcNAc(b1-2)[Neu5Ac(a2-3)Gal(b1-4)GlcNAc(b1-4)]Man(a1-3)[GlcNAc(b1-4)][Neu5Ac(a2-3)Gal(b1-4)GlcNAc(b1-2)[Neu5Ac(a2-3)Gal(b1-4)GlcNAc(b1-6)]Man(a1-6)]Man(b1-4)GlcNAc(b1-4)GlcNAc
In short: as §1

[10] = target: Neu5Ac(a2-3)Gal(b1-4)GlcNAc(b1-2)[Neu5Ac(a2-3)Gal(b1-4)GlcNAc(b1-4)]Man(a1-3)[GlcNAc(b1-4)][Neu5Ac(a2-3)Gal(b1-4)GlcNAc(b1-4)Man(a1-6)]Man(b1-4)GlcNAc(b1-4)GlcNAc
In short: as §1

[11] = target: Neu5Ac(a2-3)Gal(b1-4)GlcNAc(b1-2)[Neu5Ac(a2-3)Gal(b1-4)GlcNAc(b1-6)]Man(a1-6)[Neu5Ac(a2-3)Gal(b1-4)GlcNAc(b1-2)Man(a1-3)][GlcNAc(b1-4)]Man(b1-4)GlcNAc(b1-4)GlcNAc
In short: as §1

[12] = target: Neu5Ac(a2-3)Gal(b1-4)GlcNAc(b1-3)Gal
In short: as §1

[13] = target: Neu5Ac(a2-3)Gal(b1-4)GlcNAc(b1-3)Gal(b1-3)GlcNAc
In short: as §1

[14] = target: Neu5Ac(a2-3)Gal(b1-4)GlcNAc(b1-3)Gal(b1-4)GlcNAc
In short: as §1

[15] = target: Neu5Ac(a2-3)Gal(b1-4)GlcNAc(b1-3)Gal(b1-4)GlcNAc(b1-2)Man(a1-3)[Neu5Ac(a2-3)Gal(b1-4)GlcNAc(b1-3)Gal(b1-4)GlcNAc(b1-2)Man(a1-6)]Man(b1-4)GlcNAc(b1-4)GlcNAc
In short: as §1

[16] = target: Neu5Ac(a2-3)Gal(b1-4)GlcNAc(b1-3)Gal(b1-4)GlcNAc(b1-3)Gal(b1-4)GlcNAc
In short: as §1

[17] = target: Neu5Ac(a2-3)Gal(b1-4)GlcNAc(b1-3)Gal(b1-4)GlcNAc(b1-3)Gal(b1-4)GlcNAc(b1-2)Man(a1-3)[Neu5Ac(a2-3)Gal(b1-4)GlcNAc(b1-3)Gal(b1-4)GlcNAc(b1-3)Gal(b1-4)GlcNAc(b1-2)Man(a1-6)]GalNAc
In short: as §1

[18] = target: Neu5Ac(a2-3)Gal(b1-4)GlcNAc(b1-3)Gal(b1-4)GlcNAc(b1-3)GalNAc
In short: as §1

[19] = target: Neu5Ac(a2-3)Gal(b1-4)GlcNAc(b1-3)Gal(b1-4)GlcNAc(b1-3)[Neu5Ac(a2-3)Gal(b1-4)GlcNAc(b1-3)Gal(b1-4)GlcNAc(b1-6)]GalNAc
In short: as §1

[20] = target: Neu5Ac(a2-3)Gal(b1-4)GlcNAc(b1-3)Gal(b1-4)GlcNAc(b1-6)[Gal(b1-3)]GalNAc
In short: as §1

[21] = target: Neu5Ac(a2-3)Gal(b1-4)GlcNAc(b1-3)Gal(b1-4)[Fuc(a1-3)]GlcNAc
In short: as §1

[22] = target: Neu5Ac(a2-3)Gal(b1-4)GlcNAc(b1-3)GalNAc
In short: as §1

[23] = target: Neu5Ac(a2-3)Gal(b1-4)GlcNAc(b1-3)[Neu5Ac(a2-3)Gal(b1-4)GlcNAc(b1-6)]GalNAc
In short: as §1

B1: Mincle (Bos taurus) (protein)
chain: MNSSTSPASQTERRCFSFQLFSWAIAGTSILLLSACFITRCVVTYSIFQLCDEKKFQPPGDSMELSCYNDGSGSVKNCCPLKWFHFQSSCYLFSPDTMSWRASLKNCSSMGAHLVVINTQEEQEFLYYTKPRKKEFYIGLTDQVTEGQWQWVDGTPFTKSLSFWDAGEPNNLVIVEDCATIRDSSNPRQNWNDVPCFFNMFRVCEMPERKI
[1]
  glycan array binding signal (z-score): -0.559
[2]
  glycan array binding signal (z-score): -0.134
[3]
  glycan array binding signal (z-score): -0.845
[4]
  glycan array binding signal (z-score): 0.683
[5]
  glycan array binding signal (z-score): 0.061
[6]
  glycan array binding signal (z-score): -1.06
[7]
  glycan array binding signal (z-score): 0.44
[8]
  glycan array binding signal (z-score): 0.085
[9]
  glycan array binding signal (z-score): -0.287
[10]
  glycan array binding signal (z-score): -0.527
[11]
  glycan array binding signal (z-score): -0.652
[12]
  glycan array binding signal (z-score): -0.264
[13]
  glycan array binding signal (z-score): 0.02
[14]
  glycan array binding signal (z-score): -0.283
[15]
  glycan array binding signal (z-score): 1.14
[16]
  glycan array binding signal (z-score): -1.07
[17]
  glycan array binding signal (z-score): 4.3
[18]
  glycan array binding signal (z-score): -0.263
[19]
  glycan array binding signal (z-score): -0.078
[20]
  glycan array binding signal (z-score): -0.21
[21]
  glycan array binding signal (z-score): -0.67
[22]
  glycan array binding signal (z-score): -0.071
[23]
  glycan array binding signal (z-score): 0.097
